Where a chain is given by its changes, count along the chain named. These are yes or no findings as the source states them, for the method shown. In cells and extracts the contact can be indirect. Some binding calls cover weakened binding; strength is not graded here. Sequences can lack the tags named with a protein.
B1: N-terminal myc-tagged SMYD3, wildtype (enzyme, UniProt Q9H7B4 1-428)
chain: MEPLKVEKFATAKRGNGLRAVTPLRPGELLFRSDPLAYTVCKGSRGVVCDRCLLGKEKLMRCSQCRVAKYCSAKCQKKAWPDHKRECKCLKSCKPRYPPDSVRLLGRVVFKLMDGAPSESEKLYSFYDLESNINKLTEDKKEGLRQLVMTFQHFMREEIQDASQLPPAFDLFEAFAKVICNSFTICNAEMQEVGVGLYPSISLLNHSCDPNCSIVFNGPHLLLRAVRDIEVGEELTICYLDMLMTSEERRKQLRDQYCFECDCFRCQTQDKDADMLTGDEQVWKEVQESLKKIEELKAHWKWEQVLAMCQAIISSNSERLPDINIYQLKVLDCAMDACINLGLLEEALFYGTRTMEPYRIFFPGSHPVRGVQVMKVGKLQLHQGMFPQAMKNLRLAFDIMRVTHGREHSLIEDLILLLEECDANIRAS
B2: N-terminal myc-tagged SMYD3 MYND domain point mutant C49/S (enzyme, UniProt Q9H7B4 1-428)
chain: B1 chain with C49S

Amino acid sequences for entries named in this document (tags omitted).
UniProt O75376: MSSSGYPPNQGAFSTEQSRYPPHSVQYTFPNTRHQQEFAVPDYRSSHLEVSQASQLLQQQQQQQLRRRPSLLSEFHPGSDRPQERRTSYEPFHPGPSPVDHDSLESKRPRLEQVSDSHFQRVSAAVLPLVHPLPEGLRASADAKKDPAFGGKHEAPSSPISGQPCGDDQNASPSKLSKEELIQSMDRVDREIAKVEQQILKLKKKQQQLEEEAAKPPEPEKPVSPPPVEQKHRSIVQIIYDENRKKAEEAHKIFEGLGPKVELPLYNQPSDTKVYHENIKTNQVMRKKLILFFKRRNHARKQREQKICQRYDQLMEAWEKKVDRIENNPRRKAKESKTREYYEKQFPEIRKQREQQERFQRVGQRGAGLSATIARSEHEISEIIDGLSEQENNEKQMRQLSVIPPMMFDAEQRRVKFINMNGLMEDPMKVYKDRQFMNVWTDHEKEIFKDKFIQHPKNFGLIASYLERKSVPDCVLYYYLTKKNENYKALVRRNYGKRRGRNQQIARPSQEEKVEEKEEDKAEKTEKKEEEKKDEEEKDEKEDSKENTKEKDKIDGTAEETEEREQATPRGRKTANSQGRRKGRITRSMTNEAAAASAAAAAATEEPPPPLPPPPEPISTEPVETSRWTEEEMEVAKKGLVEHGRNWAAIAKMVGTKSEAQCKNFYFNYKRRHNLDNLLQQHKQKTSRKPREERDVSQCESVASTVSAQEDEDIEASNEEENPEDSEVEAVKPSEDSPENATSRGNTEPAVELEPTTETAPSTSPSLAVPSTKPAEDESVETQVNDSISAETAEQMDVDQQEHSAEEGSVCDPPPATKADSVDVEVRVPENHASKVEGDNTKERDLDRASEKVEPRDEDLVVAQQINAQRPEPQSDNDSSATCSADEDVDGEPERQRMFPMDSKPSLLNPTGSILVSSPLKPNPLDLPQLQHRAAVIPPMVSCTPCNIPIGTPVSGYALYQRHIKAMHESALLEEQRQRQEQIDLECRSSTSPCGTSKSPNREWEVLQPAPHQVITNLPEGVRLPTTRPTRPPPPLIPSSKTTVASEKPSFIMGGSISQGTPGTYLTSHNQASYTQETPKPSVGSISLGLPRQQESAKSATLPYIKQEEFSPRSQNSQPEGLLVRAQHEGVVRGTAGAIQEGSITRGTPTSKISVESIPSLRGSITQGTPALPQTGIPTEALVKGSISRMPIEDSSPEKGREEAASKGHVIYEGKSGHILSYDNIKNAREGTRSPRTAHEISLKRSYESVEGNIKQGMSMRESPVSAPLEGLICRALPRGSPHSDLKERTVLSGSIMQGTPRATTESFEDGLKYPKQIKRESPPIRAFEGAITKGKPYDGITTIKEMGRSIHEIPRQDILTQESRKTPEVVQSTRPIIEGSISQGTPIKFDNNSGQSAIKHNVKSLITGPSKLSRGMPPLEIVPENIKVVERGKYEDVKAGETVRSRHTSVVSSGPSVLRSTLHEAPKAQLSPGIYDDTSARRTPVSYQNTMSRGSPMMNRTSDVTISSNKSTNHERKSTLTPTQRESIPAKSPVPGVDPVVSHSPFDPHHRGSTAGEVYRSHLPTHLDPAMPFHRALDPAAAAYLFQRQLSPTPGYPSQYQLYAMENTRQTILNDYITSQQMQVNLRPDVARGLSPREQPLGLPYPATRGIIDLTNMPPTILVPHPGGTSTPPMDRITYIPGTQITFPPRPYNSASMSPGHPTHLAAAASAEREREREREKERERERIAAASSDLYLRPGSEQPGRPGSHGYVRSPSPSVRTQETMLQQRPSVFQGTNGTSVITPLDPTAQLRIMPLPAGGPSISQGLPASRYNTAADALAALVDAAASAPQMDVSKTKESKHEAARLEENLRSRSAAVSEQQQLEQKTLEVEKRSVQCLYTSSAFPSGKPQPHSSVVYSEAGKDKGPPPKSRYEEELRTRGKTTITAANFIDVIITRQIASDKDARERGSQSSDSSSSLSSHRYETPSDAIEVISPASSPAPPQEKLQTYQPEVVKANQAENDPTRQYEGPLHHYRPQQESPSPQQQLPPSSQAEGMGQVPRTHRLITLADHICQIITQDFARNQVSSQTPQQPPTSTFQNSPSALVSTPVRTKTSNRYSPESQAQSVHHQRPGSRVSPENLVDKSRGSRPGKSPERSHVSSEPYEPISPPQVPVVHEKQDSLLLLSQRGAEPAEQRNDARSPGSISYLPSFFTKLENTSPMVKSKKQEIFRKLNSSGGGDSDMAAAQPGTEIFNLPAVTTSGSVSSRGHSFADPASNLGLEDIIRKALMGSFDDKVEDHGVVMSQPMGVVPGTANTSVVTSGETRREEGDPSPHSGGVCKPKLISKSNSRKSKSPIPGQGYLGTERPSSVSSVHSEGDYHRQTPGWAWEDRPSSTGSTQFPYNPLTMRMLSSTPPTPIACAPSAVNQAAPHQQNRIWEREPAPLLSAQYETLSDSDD

Molecular target: N-CoR transcriptional co-repressor (UniProt O75376)
Assay: co-IP; 293T cells co-transfected with N-CoR and N-terminal myc-tagged SMYD3 constructs; RIPA whole cell lysates 48 h after transfection; anti-N-CoR immunoprecipitation, Western with anti-myc

binding | Binder
binds | B1
no binding | B2

From PMC3136521
